Some of the results follow. Rule as the data show it: active = 2 or more and inactive = the rest. Most values lie within the scatter of the assay; repeated measurements hardly agree.

For the assay, the system named is Lgr5 (MarsCy1-Lgr5-EGFP, U2OS). Nature of the assay: cell-surface Lgr5 expression (SCi1 fluorescence, background-subtracted) relative to WT DMSO (fold of DMSO control); higher = more Lgr5 at the plasma membrane. The following applies: U2OS MarsCy1-Lgr5-EGFP stable; treatment time: overnight; library: ActiProbe-5K (TimTec); 25 µM.
Consider `Oc1ccc2cc(SSc3ccc4cc(O)ccc4c3)ccc2c1`, for which the “cell-surface Lgr5 expression” value was inactive: 0.961.
Regarding `O=[N+]([O-])c1cc(/C=N\c2cc(Cl)cc(Cl)c2)ccc1Cl`, the “cell-surface Lgr5 expression” value was inactive: 1.59.
For `c1ccc(-c2cc(-c3nnc(-c4ccncc4)o3)c3ccccc3n2)cc1`, the “cell-surface Lgr5 expression” value is active: 2.92.
On to `NC(=O)c1nc(Cl)c(N)nc1N`, for which the “cell-surface Lgr5 expression” value is inactive: 1.22.
As to `Cc1[nH]c(=O)[nH]c(=O)c1CSCC(=O)O`, the “cell-surface Lgr5 expression” value was inactive: 1.28.
Then `N#CC1=C(N)Oc2ncnc(O)c2C1c1cccs1` (configuration not stated), with inactive: 1.22; and `Nc1nonc1/C(=N/O)n1cc(-c2ccccc2)nn1`, with inactive: 1.06.
Take `O=c1[nH]c(=O)c2ncn(C3OC(CO)C(O)C3O)c2[nH]1` (configuration not stated): the “cell-surface Lgr5 expression” value is inactive: 1.04.
As to `Cc1cc(C)n(C)c(=O)c1C(=O)NCC1CCCO1` (configuration not stated), the “cell-surface Lgr5 expression” value was inactive: 1.09.
The value for `Cn1cccc1/C=N/NC(=O)Cn1cnc2c1c(=O)n(C)c(=O)n2C` was inactive: 1.22; that for `COc1ccc(Br)cc1-c1noc(C(F)(F)F)n1` was inactive: 1.11.
The value for `CCN1CCC2(CC1)C(C#N)=C(N)Oc1[nH]nc(C)c12` was inactive: 1.12; that for `Cc1cc2n(n1)C(C(F)(F)F)CC(C1CC1)N2` (configuration not stated) was inactive: 1.34; that for `CCCCc1[nH]nc2c1C1(CCCCC1)C(C#N)=C(N)O2` was inactive: 0.935.
Regarding `CCCCCCCCCn1c(=O)c2c(ncn2C)n(C)c1=O`, the “cell-surface Lgr5 expression” value was inactive: 1.31.
Regarding `c1ccc2c(c1)OC1(CCCCC1)O2`, the “cell-surface Lgr5 expression” value is inactive: 1.24.
In the case of `O=S(=O)(Cc1ccccc1)NC1CCCC1`, the “cell-surface Lgr5 expression” value was inactive: 1.08.
Then `C=C(C)CC1NC2CC(C)(C)C1c1c(Br)cccc12.Cl` (configuration not stated), with inactive: 1.34; and `Cn1c(N)nc2ccccc21`, with inactive: 1.22.
The value for `O=[N+]([O-])c1cc2c(c([N+](=O)[O-])c1)C=Cc1cc(Cl)ccc1O2` was inactive: 0.908.
Regarding `O=c1[nH]cc(C(F)(F)F)c(=O)[nH]1`, the “cell-surface Lgr5 expression” value was inactive: 1.19.
`Oc1ccc(/C=N/Nc2nccnc2Cl)c(O)c1`: the “cell-surface Lgr5 expression” value is inactive: 0.306.
As to `O=c1ccn(-c2ccccc2)[nH]1`, the “cell-surface Lgr5 expression” value was inactive: 1.04.
The value for `O=S(=O)(Nc1nc2ccccc2nc1N1CCOCC1)c1ccccc1` was inactive: 1.41.
`CC(C)N1C[C@@H](C)C(=O)C[C@@H]1C`: the “cell-surface Lgr5 expression” value is inactive: 1.45.
Then `CC(C)(C)S(=O)(=O)c1cccc(S(=O)(=O)C(C)(C)C)c1`, with inactive: 0.918.
Regarding `CN(C)c1ccc([N+](=O)[O-])cc1Cl`, the “cell-surface Lgr5 expression” value was inactive: 1.1.
For the compound `c1ccc(-n2cnc3cnccc32)cc1`, the “cell-surface Lgr5 expression” value was inactive: 1.1.
`O=C(NCCCCNC(=O)c1cnccn1)c1cnccn1`: the “cell-surface Lgr5 expression” value is inactive: 1.19.
With `Clc1cc2c(cc1CO/N=C1/CCCc3nonc31)OCO2`, the “cell-surface Lgr5 expression” value is inactive: 0.968.
Then `Nc1nonc1NC(=O)CCC(=O)O`, with inactive: 1.12; and `Oc1ncnc2c1sc(=S)n2Cc1ccccc1`, with inactive: 1.38.
On to `Oc1ccc(Cl)cc1Sc1cc(Cl)ccc1O`, for which the “cell-surface Lgr5 expression” value was inactive: 0.891.
The value for `Sc1nnc(-c2ccco2)n1/N=C/C=C\c1ccco1` was inactive: 1.23; that for `FC(F)(F)c1ccnc(=S)[nH]1` was inactive: 1.15.
The value for `COC(=O)/C(C#N)=C\c1cccn1C` was inactive: 1.13; that for `c1ccc(-c2nnc(-c3ccccn3)o2)nc1` was inactive: 1.19.
Turning to `N#CC1=C(N)Oc2ncnc(O)c2C1c1ccoc1` (configuration not stated), the “cell-surface Lgr5 expression” value was inactive: 1.31.
With `CC(C)c1nnc(NC(=O)CC(C)(C)C)s1`, the “cell-surface Lgr5 expression” value was inactive: 1.38.
As for `O=C(NCC12CC3CC(CC(C3)C1)C2)c1cnccn1`, the “cell-surface Lgr5 expression” value was inactive: 1.19.
The value for `Oc1ncnc2nn(-c3ccccc3)nc12` was inactive: 1.33; that for `O=C1OCCO/C1=C/c1ccc([N+](=O)[O-])o1` was inactive: 0.825.
For `CCSc1nnc(C(F)F)n1NS(=O)(=O)c1cc(C)ccc1C`, the “cell-surface Lgr5 expression” value is inactive: 0.902.
Regarding `CCOC(=O)C1=C(C)NC(Nc2nccs2)(C(F)(F)F)C1=O` (configuration not stated), the “cell-surface Lgr5 expression” value is inactive: 1.33.
Take `O=C1OCc2cc(NS(=O)(=O)c3ccc(Br)s3)ccc21`: the “cell-surface Lgr5 expression” value was inactive: 1.28.
With `N#Cc1cc2c([nH]c1=S)CCC2`, the “cell-surface Lgr5 expression” value is inactive: 1.22.
The value for `n1(c2c(non2)N)c(c(C(N\N=C2\CCCCCC2)=O)nn1)C` was inactive: 1.23.
As to `O=C/C(=C/O)c1cnc2ccccc2n1`, the “cell-surface Lgr5 expression” value was inactive: 1.25.
The value for `C=CCN(CC=C)Cn1nc(O)ccc1=O` was inactive: 1.06; that for `Cc1sc2nc[nH]c(=O)c2c1C` was active: 2.29; that for `NC(=O)CSc1nnnn1C1CCCCC1` was inactive: 1.2.
On to `Cn1nc(C(F)(F)F)c(Br)c1C(=O)NN`, for which the “cell-surface Lgr5 expression” value is inactive: 0.952.
Then `CC1(C)CC2(CCS1)N1CC3(C)CN2CC(C)(C1)C3=O` (configuration not stated), with inactive: 0.902; and `Cc1nnc(C)n1/N=C/c1cccn1C`, with inactive: 1.24.
For `CSc1ccc(/C=N/n2c(S)nnc2-c2ccc(C(C)(C)C)cc2)cc1`, the “cell-surface Lgr5 expression” value was inactive: 0.935.
The value for `OC1(/C=C/C[NH+]2CCCCC2)CCCCC1.[Cl-]` was inactive: 1.33.
Consider `O=c1[nH]cnc2sc3c(c12)CCCC3`, for which the “cell-surface Lgr5 expression” value is inactive: 0.771.
For the compound `CC1=NN(c2ccccc2)C(=O)/C1=C/N(S)C(C)(C)C`, the “cell-surface Lgr5 expression” value was inactive: 1.06.
Regarding `O=C(O)c1cc2c(s1)CCCC2`, the “cell-surface Lgr5 expression” value is inactive: 1.36.
For the compound `CCOC(=O)c1c[nH]c2nc(C)nn2c1=O`, the “cell-surface Lgr5 expression” value was inactive: 0.799.
In the case of `CSc1nc(N)nc(SCC(=O)C(C)(C)C)c1C#N`, the “cell-surface Lgr5 expression” value was inactive: 1.35.
With `O=c1[nH]cnc2c1ncn2[C@H]1C[C@H](O)[C@@H](CO)O1`, the “cell-surface Lgr5 expression” value is inactive: 1.08.
For the compound `c1ccc(Cn2c(CSc3nc4ccccc4o3)nc3ccccc32)cc1`, the “cell-surface Lgr5 expression” value was inactive: 0.924.
On to `CCOC(=O)Cc1c[nH][nH]c1=O`, for which the “cell-surface Lgr5 expression” value was inactive: 0.82.
Regarding `Cn1c(=O)[nH]c(=O)c2c1nc(Br)n2CCC(=O)O`, the “cell-surface Lgr5 expression” value is inactive: 1.34.
For `Fc1ccccc1/C=N\n1c(S)nnc1-c1ccccc1`, the “cell-surface Lgr5 expression” value is inactive: 1.15.
The value for `S=C(Nc1ccccc1)Nc1ccccc1Br` was inactive: 1.07; that for `C1(=NC(N\C1=C(\C#N)C#N)C(C)C)N` (configuration not stated) was inactive: 0.957; that for `Fc1ccc(NC(=S)N2CCOCC2)cc1` was inactive: 1.27.
Turning to `CSc1sc(SC)c(Br)c1Br`, the “cell-surface Lgr5 expression” value was inactive: 1.11.
The value for `Cn1nccc1-c1cc(C(=O)O)n[nH]1` was inactive: 1.22.
Turning to `Sc1nnc(COc2ccccc2)n1/N=C/c1ccccn1`, the “cell-surface Lgr5 expression” value was inactive: 0.965.

The values are drawn from the supplement of paper PMC4683952.
